Measured values: US20220033813
Construct, isoform or probe ends are uncertain for at least one entry.

Tested on: Polycomb Repressive Complex 2 (PRC2)
Assay: EMSA
Details: L-RNA; terminal D-deoxyadenosine residues (D-dA); 100 mM KCl, 2.5 mM MgCl2, 30 C; similar to D enantiomer; purified recombinant protein; protein details: purchased from Active Motif (Carlsbad, Calif.); label: Cy3; synthetic backbone; mirror-image nucleic acid; variant of D-(G3A4)4

GGGAAAA [L-(G3A4)4]
binding result: binds
